These results are taken from US20130280279A1 (HOFFMANN-LA ROCHE INC., priority 2011, published 2013).

Series [1] is described as follows: general procedure: Fmoc solid-phase peptide synthesis; TentaGel RAM resin (loading: 0.18 mmol/g; Rapp Polymers, Germany); HBTU/HOBt, DIPEA. Particulars: conjugation step.
The nature of series [2]: general procedure: Fmoc solid-phase peptide synthesis; TentaGel RAM; HBTU/HOBt, DIPEA. Particulars: whole synthesis, scale 0.25 mmol.

For part of these data: Some peptides are written in HELM: one residue between dots, names in brackets for other building blocks, links after the first $.

Take “PEPTIDE1{[ac].I.K.[Pqa].R.H.Y.L.N.W.V.T.R.Q.[NMeArg].Y.[am]}|PEPTIDE2{[DigCME].[TEG]}$PEPTIDE1,PEPTIDE2,3:R3-2:R2$$$V2.0”: the conjugation yield in series [1] came out at 25%.
In series [2], Ac-IK-Pqa-RHYLNWVTRQ(N-methyl)RY showed a crude mass of 337 mg and a crude yield of 55%.
